Data from patent publication US20170275376A1.
These are yes or no findings as the source states them, for the method shown. Some binding calls cover weakened binding; strength is not graded here.

Assays:
anti-FIXa-arm of ACE910 = assay: ELISA, hybridoma culture supernatant
anti-FX-arm of ACE910 = assay: ELISA, hybridoma culture supernatant

B1: mouse antibody AQ8 (antibody, V domains shown)
VH: EVNLVESGGGLVQPGGSMSLSCAASGFTFTDYYMSWVRQPPGKALEWLALIRNKANGYTTEYSASVKGRFTISRDNSQSILYLQMNALRAEDSATYYCARDSYYSYDGYAMDYWGQGTSVTVSS
VL: DIQMTQSPASLAASVGETITITCQASENIYFSLAWYQQKQGKSPQLLIYNTDSLKDGVPSRFSGSGSGTQYSMKINSMQPEDTATYFCRQSYDFPWTFGGGTKLEIK
With B1 the binding (anti-FIXa-arm of ACE910) was “binds”.

B2: rat antibody AJ540 (antibody, V domains shown)
VH: QIQLVQSGPELKKPGESVKISCKASGYTFTDYAMHWVKQVPGKGLKWMGWINTYTGKPTYADDFKGRFVFSLEASASTANLQISNLKNEDTANVFCAREGGGYYWYFDFWGPGTMVTVSS
VL: DIVMTQSPTSMSISVGDRVTMNCKANQNVDFNVDWYQQKTGQSPKLLIYKASNRYTGVPDRFTGSGSGTDFTFTISNMQAEDLAVYYCMQSNSFPLTFGSGTNLEIK
With B2 the binding (anti-FX-arm of ACE910) was “binds”.
